Among the data in patent EP2385124A2 are binding values, retold here.

The target in the assay is GST-DLG1 PDZ domains 1-2 fusion protein (human). In words: A/G plate assay (TABLE 2).

No constants are given. Whether binding was seen depends on the method and setting. A result given as binding can be weak or reduced; the word gives no strength.

B1: Clasp-4 C-terminal PL peptide AA3L (peptide)
peptide: CAISGTSSDRGYGSPRYAEV
modifications: biotin at the amino-terminus
With B1, the binding result is “binds”.

B2: Clasp-1 C-terminal PL peptide AA1L (peptide)
peptide: ISKATPALPTVSISSSAEV
modifications: biotin at the amino-terminus
Take B2: the binding entry is on record as “binds”.

B3: DNAM-1 C-terminal PL peptide AA22L (peptide)
peptide: TREDIYVNYPTFSRRPKTRV
modifications: biotin at the amino-terminus
For the molecule B3, the binding result is “binds”.

B4: CDW128A (IL8RA) C-terminal PL peptide AA29.1L (peptide)
peptide: ARHRVTSYTSSSVNVSSNL
modifications: biotin at the amino-terminus
Take B4: the binding result is listed as “binds”.

B5: LPAP C-terminal PL peptide AA30L (peptide)
peptide: AWDDSARAAGGQGLHVTAL
modifications: biotin at the amino-terminus
Turning to B5, the binding result is listed as “binds”.

B6: Glycophorin C C-terminal PL peptide AA37L (peptide)
peptide: QGDPALQDAGDSSRKEYFI
modifications: biotin at the amino-terminus
Take B6: the binding result is “binds”.

B7: VCAM1 C-terminal PL peptide AA17L (peptide)
peptide: ARKANMKGSYSLVEAQKSKV
modifications: biotin at the amino-terminus
Consider B7, for which the binding entry is recorded as “binds”.

B8: CD97 C-terminal PL peptide AA14L (peptide)
peptide: TSGTGHNQTRALRASESGI
modifications: biotin at the amino-terminus
Turning to B8, the binding entry is on record as “binds”.

B9: CD46 (Form 1) C-terminal PL peptide AA10L (peptide)
peptide: KKGTYLTDETHREVKFTSL
modifications: biotin at the amino-terminus
B9: the binding entry is “binds”.

B10: CD34 C-terminal PL peptide AA7L (peptide)
peptide: QATSRNGHSARQHVVADTEL
modifications: biotin at the amino-terminus
On to B10, for which the binding result is recorded as “binds”.

B11: CD83 C-terminal PL peptide AA47L (peptide)
peptide: VTSPNKHLGLVTPHKTELV
modifications: biotin at the amino-terminus
B11: the binding result is on record as “binds”.

B12: CD3n C-terminal PL peptide AA4L (peptide)
peptide: SVFSIPTLWSPWPPSSSSQL
modifications: biotin at the amino-terminus
For B12, the binding result is “binds”.

B13: CDW128B (IL8RB) C-terminal PL peptide AA29.2L (peptide)
peptide: KDSRPSFVGSSSGHTSTTL
modifications: biotin at the amino-terminus
In the case of B13, the binding result is recorded as “binds”.

B14: KV1.3 C-terminal PL peptide AA33L (peptide)
peptide: TTNNNPNSAVNIKKIFTDV
modifications: biotin at the amino-terminus
In the case of B14, the binding entry is “binds”.
